Paper doi:10.1101/2021.12.09.471821
These are yes or no findings as the source states them, for the method shown. A result given as binding can be weak or reduced; the word gives no strength.

Biological target: eukaryotic initiation factor 1A (eIF1A), unlabeled (human)
Assay: cryo-EM structure

binding: binds weakly
B1: eukaryotic initiation factor 5B (eIF5B), unlabeled, as added to the 48S complex for cryo-EM (protein, UniProt O60841 1-1220)
chain: MGKKQKNKSEDSTKDDIDLDALAAEIEGAGAAKEQEPQKSKGKKKKEKKKQDFDEDDILKELEELSLEAQGIKADRETVAVKPTENNEEEFTSKDKKKKGQKGKKQSFDDNDSEELEDKDSKSKKTAKPKVEMYSGSDDDDDFNKLPKKAKGKAQKSNKKWDGSEEDEDNSKKIKERSRINSSGESGDESDEFLQSRKGQKKNQKNKPGPNIESGNEDDDASFKIKTVAQKKAEKKERERKKRDEEKAKLRKLKEKEELETGKKDQSKQKESQRKFEEETVKSKVTVDTGVIPASEEKAETPTAAEDDNEGDKKKKDKKKKKGEKEEKEKEKKKGPSKATVKAMQEALAKLKEEEERQKREEEERIKRLEELEAKRKEEERLEQEKRERKKQKEKERKERLKKEGKLLTKSQREARARAEATLKLLQAQGVEVPSKDSLPKKRPIYEDKKRKKIPQQLESKEVSESMELCAAVEVMEQGVPEKEETPPPVEPEEEEDTEDAGLDDWEAMASDEETEKVEGNKVHIEVKENPEEEEEEEEEEEEDEESEEEEEEEGESEGSEGDEEDEKVSDEKDSGKTLDKKPSKEMSSDSEYDSDDDRTKEERAYDKAKRRIEKRRLEHSKNVNTEKLRAPIICVLGHVDTGKTKILDKLRHTHVQDGEAGGITQQIGATNVPLEAINEQTKMIKNFDRENVRIPGMLIIDTPGHESFSNLRNRGSSLCDIAILVVDIMHGLEPQTIESINLLKSKKCPFIVALNKIDRLYDWKKSPDSDVAATLKKQKKNTKDEFEERAKAIIVEFAQQGLNAALFYENKDPRTFVSLVPTSAHTGDGMGSLIYLLVELTQTMLSKRLAHCEELRAQVMEVKALPGMGTTIDVILINGRLKEGDTIIVPGVEGPIVTQIRGLLLPPPMKELRVKNQYEKHKEVEAAQGVKILGKDLEKTLAGLPLLVAYKEDEIPVLKDELIHELKQTLNAIKLEEKGVYVQASTLGSLEALLEFLKTSEVPYAGINIGPVHKKDVMKASVMLEHDPQYAVILAFDVRIERDAQEMADSLGVRIFSAEIIYHLFDAFTKYRQDYKKQKQEEFKHIAVFPCKIKILPQYIFNSRDPIVMGVTVEAGQVKQGTPMCVPSKNFVDIGIVTSIEINHKQVDVAKKGQEVCVKIEPIPGESPKMFGRHFEATDILVSKISRQSIDALKDWFRDEMQKSDWQLIVELKKVFEII
